# No constants are given. Whether binding was seen depends on the method and setting. Binding seen in cells or lysates may run through a third protein. Binding calls can cover weak binding; strength is not graded here. Sequences can lack the tags named with a protein.
# Assays:
# [1] = target: T1, Recombinant murine C-terminally 2xStrepII tagged full length fibulin-1 (murine) (UniProt Q08879); assay: pull-down; positive control experiment of the in vitro binding assay: fibulin-1 and -2 with elastin (Supplementary Fig. S2); details not told
# T1 sequence: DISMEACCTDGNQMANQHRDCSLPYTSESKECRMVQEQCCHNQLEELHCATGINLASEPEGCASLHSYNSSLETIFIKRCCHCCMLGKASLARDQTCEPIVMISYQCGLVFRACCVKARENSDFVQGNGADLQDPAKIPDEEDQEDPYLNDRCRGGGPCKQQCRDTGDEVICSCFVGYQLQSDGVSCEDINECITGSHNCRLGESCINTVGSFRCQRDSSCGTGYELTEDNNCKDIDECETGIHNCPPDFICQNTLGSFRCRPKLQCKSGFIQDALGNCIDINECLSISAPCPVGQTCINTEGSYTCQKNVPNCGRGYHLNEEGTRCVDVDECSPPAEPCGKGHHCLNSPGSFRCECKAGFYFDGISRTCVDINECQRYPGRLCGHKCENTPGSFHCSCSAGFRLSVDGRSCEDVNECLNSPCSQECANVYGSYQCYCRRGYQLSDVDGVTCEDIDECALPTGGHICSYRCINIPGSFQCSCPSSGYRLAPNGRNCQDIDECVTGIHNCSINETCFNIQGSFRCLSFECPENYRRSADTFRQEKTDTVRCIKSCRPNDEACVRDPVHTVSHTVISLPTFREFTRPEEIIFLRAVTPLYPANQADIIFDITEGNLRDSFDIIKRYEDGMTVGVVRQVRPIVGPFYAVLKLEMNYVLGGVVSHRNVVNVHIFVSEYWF
# [2] = target: T2, Recombinant murine C-terminally 2xStrepII tagged full length fibulin-2 (murine) (UniProt P37889); assay: as above
# T2 sequence: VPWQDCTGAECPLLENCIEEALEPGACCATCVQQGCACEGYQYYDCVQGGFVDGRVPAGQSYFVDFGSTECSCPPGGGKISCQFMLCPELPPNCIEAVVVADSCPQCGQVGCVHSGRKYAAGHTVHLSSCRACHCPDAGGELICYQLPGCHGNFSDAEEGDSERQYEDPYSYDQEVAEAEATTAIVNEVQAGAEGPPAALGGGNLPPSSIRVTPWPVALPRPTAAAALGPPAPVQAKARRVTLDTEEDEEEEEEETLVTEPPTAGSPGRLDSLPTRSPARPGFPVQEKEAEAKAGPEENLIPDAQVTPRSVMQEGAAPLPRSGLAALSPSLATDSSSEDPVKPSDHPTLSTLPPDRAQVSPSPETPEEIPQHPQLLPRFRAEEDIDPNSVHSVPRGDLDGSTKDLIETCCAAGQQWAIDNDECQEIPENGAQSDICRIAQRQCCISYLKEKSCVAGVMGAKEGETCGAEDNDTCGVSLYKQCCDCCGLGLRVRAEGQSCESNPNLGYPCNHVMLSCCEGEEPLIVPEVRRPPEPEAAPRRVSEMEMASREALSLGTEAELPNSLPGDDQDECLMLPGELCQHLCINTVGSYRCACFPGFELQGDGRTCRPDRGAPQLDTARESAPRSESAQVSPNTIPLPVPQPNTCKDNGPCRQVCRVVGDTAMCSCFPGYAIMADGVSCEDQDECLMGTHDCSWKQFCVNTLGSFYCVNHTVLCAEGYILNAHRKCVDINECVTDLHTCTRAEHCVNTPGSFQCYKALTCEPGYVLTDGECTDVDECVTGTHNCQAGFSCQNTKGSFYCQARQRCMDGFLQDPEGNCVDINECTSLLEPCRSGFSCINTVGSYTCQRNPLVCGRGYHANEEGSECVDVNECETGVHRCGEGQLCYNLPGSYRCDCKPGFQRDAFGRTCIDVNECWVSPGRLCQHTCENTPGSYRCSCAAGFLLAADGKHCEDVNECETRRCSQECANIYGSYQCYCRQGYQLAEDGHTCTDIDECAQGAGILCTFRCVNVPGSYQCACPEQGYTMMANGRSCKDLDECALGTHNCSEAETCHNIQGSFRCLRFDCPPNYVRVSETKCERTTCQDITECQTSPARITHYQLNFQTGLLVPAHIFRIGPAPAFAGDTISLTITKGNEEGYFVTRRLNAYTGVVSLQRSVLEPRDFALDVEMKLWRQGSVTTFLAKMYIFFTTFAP
substance,measurement,setting,value
elastin,binding,[1],binds
same,binding,[2],binds
